Taken from: PubChem BioAssay AID743454 (Peter MacCallum Cancer Centre, 2014)

Aim: 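Knock-downs lowering viability or raising caspase 3/7 activity in vorinostat-treated resistant cells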 (primary screen)
System: human HCT116-VR colon cancer cells, selected for vorinostat resistance
Reagents: siRNA pool against human genes, 40 nM siRNA pool
Duration: vorinostat for 24 h, read-out about 72 h after transfection
Conditions: vorinostat at 2.5 µM final
Measurement: 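Two measures, CellTiter-Fluor viability and luminescent caspase 3/7 activity, each as fold change against same-plate mock wells, mean of duplicates, then screen-wide robust z-score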
Scale: viability robust z-score: higher = more viable cells than screen typical; caspase robust z-score: higher = more caspase 3/7 activity than screen typical
Active means: 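Hits are knock-downs in viability class RV1/RV2 or caspase class CA1/CA2, excluding ones that killed cells in the no-drug cell-count arm; hits then retested with single siRNAs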
In all, the deposit lists about 18,000 reagents; shown is an unselected part. In the full data, 450 (2.5%) got an active call. 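Single biological run; no consistent viability z cut-off exists, so the class columns, not z-scores, define the calls.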 The numbers tell different reagents against one gene apart.

Target gene	pool no.	viability hit class	caspase hit class	viability robust z-score	caspase robust z-score	Outcome
MARVELD3 (MARVEL domain containing 3)	1	no change	no change	1.42	1.18	inactive
ARHGEF39 (Rho guanine nucleotide exchange factor 39)	1	no change	no change	-0.34	-0.93	inactive
DENND10P1 (DENND10 pseudogene 1)	1	no change	no change	-0.44	-0.12	inactive
RMDN1 (regulator of microtubule dynamics 1)	1	no change	no change	0.46	-0.61	inactive
AJUBA (ajuba LIM protein)	1	no change	no change	0.02	0.3	inactive
KIAA1143	1	no change	CA1 (caspase activation)	-1.85	5.21	active
TAS2R42 (taste 2 receptor member 42)	1	no change	no change	-0.15	1.27	inactive
RABL3 (RAB, member of RAS oncogene family like 3)	1	no change	no change	0.1	-0.4	inactive
MALT1 (MALT1 paracaspase)	1	no change	no change	0.86	1.09	inactive
DMC1 (DNA meiotic recombinase 1)	1	no change	no change	0.62	-0.09	inactive
RNASE10 (ribonuclease A family member 10 (inactive))	1	no change	no change	0.93	2.54	inactive
SFTPA1 (surfactant protein A1)	1	no change	no change	-0.85	0.36	inactive
SFTPA1 (surfactant protein A1)	2	no change	no change	0.44	-0.59	inactive
XKRYP7 (XK related, Y-linked pseudogene 7)	1	no change	no change	-1.39	4.13	inactive
PDE6B (phosphodiesterase 6B)	1	no change	no change	-0.26	-0.94	inactive
IP6K2 (inositol hexakisphosphate kinase 2)	1	no change	no change	-0.1	3.87	inactive
LOC400576 (retired record)	1	no change	no change	0.77	1.17	inactive
TMEM53 (transmembrane protein 53)	1	no change	no change	-0.9	-0.97	inactive
ARHGAP19 (Rho GTPase activating protein 19)	1	no change	no change	-1.94	1.63	inactive
COG8 (component of oligomeric golgi complex 8)	1	no change	no change	0.07	0.33	inactive
PNMA6A (PNMA family member 6A)	1	no change	no change	-1.57	4.31	inactive
ATP6V0A2 (ATPase H+ transporting V0 subunit a2)	1	no change	no change	0.28	-0.06	inactive
ZKSCAN7 (zinc finger with KRAB and SCAN domains 7)	1	no change	no change	0.16	-0.72	inactive
UBTFL7 (UBTF like 7 (pseudogene))	1	no change	no change	0.06	-0.15	inactive
CBLB (Cbl proto-oncogene B)	1	no change	no change	-0.8	4.23	inactive
WIPF3 (WAS/WASL interacting protein family member 3)	1	no change	no change	0.54	0.35	inactive
GPR179 (G protein-coupled receptor 179)	1	no change	no change	0.34	-1.12	inactive
MOAP1 (modulator of apoptosis 1)	1	no change	no change	-0.7	-0.26	inactive
GAB1 (GRB2 associated binding protein 1)	1	no change	no change	-0.79	2.96	inactive
DNASE2 (deoxyribonuclease 2, lysosomal)	1	no change	no change	0.08	1.84	inactive
CCDC62 (coiled-coil domain containing 62)	1	no change	no change	1.34	-0.82	inactive
SSH3 (slingshot protein phosphatase 3)	1	no change	no change	0	3.04	inactive
TUBB4B (tubulin beta 4B class IVb)	1	no change	no change	-0.19	2.1	inactive
PCOTH (prostate and testis expressed opposite C1QTNF9B and MIPEP)	1	no change	no change	2.06	-0.54	inactive
NLRP1 (NLR family pyrin domain containing 1)	1	no change	no change	0.12	-0.94	inactive
ALG9 (ALG9 alpha-1,2-mannosyltransferase)	1	no change	no change	0.08	2.34	inactive
LPO (lactoperoxidase)	1	no change	no change	0.48	-1.14	inactive
KBTBD3 (kelch repeat and BTB domain containing 3)	1	no change	no change	0.3	0.24	inactive

Continued; the last 2 above are carried over.
Target gene	pool no.	viability hit class	caspase hit class	viability robust z-score	caspase robust z-score	Outcome
LPO (lactoperoxidase)	1	no change	no change	0.48	-1.14	inactive
KBTBD3 (kelch repeat and BTB domain containing 3)	1	no change	no change	0.3	0.24	inactive
DNAJC25-GNG10 (DNAJC25-GNG10 readthrough)	1	no change	no change	-0.49	0.2	inactive
SECISBP2L (SECIS binding protein 2 like)	1	no change	no change	-0.73	-0.88	inactive
KLHL23 (kelch like family member 23)	1	no change	no change	0.92	-0.18	inactive
PIGH (phosphatidylinositol glycan anchor biosynthesis class H)	1	no change	no change	0.2	-0.3	inactive
PBRM1 (polybromo 1)	1	no change	no change	0.86	-0.06	inactive
GPX1 (glutathione peroxidase 1)	1	no change	no change	0.38	0.3	inactive
PRKCI (protein kinase C iota)	1	no change	no change	0.8	-0.6	inactive
CRYBB2 (crystallin beta B2)	1	no change	no change	-0.18	-1.06	inactive
MRPL20 (mitochondrial ribosomal protein L20)	1	no change	no change	0.7	0.03	inactive
GPHB5 (glycoprotein hormone subunit beta 5)	1	no change	no change	-0.39	-0.56	inactive
STYXL2 (serine/threonine/tyrosine interacting like 2)	1	no change	no change	0.02	-1.16	inactive
PPP1R3A (protein phosphatase 1 regulatory subunit 3A)	1	no change	no change	0.78	-0.58	inactive
COPG2 (coat protein complex I subunit gamma 2)	1	no change	no change	0.87	-0.02	inactive
EMP2 (epithelial membrane protein 2)	1	no change	no change	0.36	-0.44	inactive
PTDSS1 (phosphatidylserine synthase 1)	1	no change	no change	0.16	0.86	inactive
FLOT1 (flotillin 1)	1	no change	no change	0.27	2.8	inactive
ZNF107 (zinc finger protein 107)	1	no change	no change	-1.73	1.11	inactive
OTOP2 (otopetrin 2)	1	no change	no change	1.53	-0.4	inactive
IL21 (interleukin 21)	1	no change	no change	0.36	3.4	inactive
